B1: USP8, endogenous (FaDu) (enzyme, UniProt P40818 1-1118)
chain: MPAVASVPKELYLSSSLKDLNKKTEVKPEKISTKSYVHSALKIFKTAEECRLDRDEERAYVLYMKYVTVYNLIKKRPDFKQQQDYFHSILGPGNIKKAVEEAERLSESLKLRYEEAEVRKKLEEKDRQEEAQRLQQKRQETGREDGGTLAKGSLENVLDSKDKTQKSNGEKNEKCETKEKGAITAKELYTMMTDKNISLIIMDARRMQDYQDSCILHSLSVPEEAISPGVTASWIEAHLPDDSKDTWKKRGNVEYVVLLDWFSSAKDLQIGTTLRSLKDALFKWESKTVLRNEPLVLEGGYENWLLCYPQYTTNAKVTPPPRRQNEEVSISLDFTYPSLEESIPSKPAAQTPPASIEVDENIELISGQNERMGPLNISTPVEPVAASKSDVSPIIQPVPSIKNVPQIDRTKKPAVKLPEEHRIKSESTNHEQQSPQSGKVIPDRSTKPVVFSPTLMLTDEEKARIHAETALLMEKNKQEKELRERQQEEQKEKLRKEEQEQKAKKKQEAEENEITEKQQKAKEEMEKKESEQAKKEDKETSAKRGKEITGVKRQSKSEHETSDAKKSVEDRGKRCPTPEIQKKSTGDVPHTSVTGDSGSGKPFKIKGQPESGILRTGTFREDTDDTERNKAQREPLTRARSEEMGRIVPGLPSGWAKFLDPITGTFRYYHSPTNTVHMYPPEMAPSSAPPSTPPTHKAKPQIPAERDREPSKLKRSYSSPDITQAIQEEEKRKPTVTPTVNRENKPTCYPKAEISRLSASQIRNLNPVFGGSGPALTGLRNLGNTCYMNSILQCLCNAPHLADYFNRNCYQDDINRSNLLGHKGEVAEEFGIIMKALWTGQYRYISPKDFKITIGKINDQFAGYSQQDSQELLLFLMDGLHEDLNKADNRKRYKEENNDHLDDFKAAEHAWQKHKQLNESIIVALFQGQFKSTVQCLTCHKKSRTFEAFMYLSLPLASTSKCTLQDCLRLFSKEEKLTDNNRFYCSHCRARRDSLKKIEIWKLPPVLLVHLKRFSYDGRWKQKLQTSVDFPLENLDLSQYVIGPKNNLKKYNLFSVSNHYGGLDGGHYTAYCKNAARQRWFKFDDHEVSDISVSSVKSSAAYILFYTSLGPRVTDVAT
B2: USP36, endogenous (FaDu) (enzyme, UniProt Q9P275 1-1123)
chain: MPIVDKLKEALKPGRKDSADDGELGKLLASSAKKVLLQKIEFEPASKSFSYQLEALKSKYVLLNPKTEGASRHKSGDDPPARRQGSEHTYESCGDGVPAPQKVLFPTERLSLRWERVFRVGAGLHNLGNTCFLNATIQCLTYTPPLANYLLSKEHARSCHQGSFCMLCVMQNHIVQAFANSGNAIKPVSFIRDLKKIARHFRFGNQEDAHEFLRYTIDAMQKACLNGCAKLDRQTQATTLVHQIFGGYLRSRVKCSVCKSVSDTYDPYLDVALEIRQAANIVRALELFVKADVLSGENAYMCAKCKKKVPASKRFTIHRTSNVLTLSLKRFANFSGGKITKDVGYPEFLNIRPYMSQNNGDPVMYGLYAVLVHSGYSCHAGHYYCYVKASNGQWYQMNDSLVHSSNVKVVLNQQAYVLFYLRIPGSKKSPEGLISRTGSSSLPGRPSVIPDHSKKNIGNGIISSPLTGKRQDSGTMKKPHTTEEIGVPISRNGSTLGLKSQNGCIPPKLPSGSPSPKLSQTPTHMPTILDDPGKKVKKPAPPQHFSPRTAQGLPGTSNSNSSRSGSQRQGSWDSRDVVLSTSPKLLATATANGHGLKGNDESAGLDRRGSSSSSPEHSASSDSTKAPQTPRSGAAHLCDSQETNCSTAGHSKTPPSGADSKTVKLKSPVLSNTTTEPASTMSPPPAKKLALSAKKASTLWRATGNDLRPPPPSPSSDLTHPMKTSHPVVASTWPVHRARAVSPAPQSSSRLQPPFSPHPTLLSSTPKPPGTSEPRSCSSISTALPQVNEDLVSLPHQLPEASEPPQSPSEKRKKTFVGEPQRLGSETRLPQHIREATAAPHGKRKRKKKKRPEDTAASALQEGQTQRQPGSPMYRREGQAQLPAVRRQEDGTQPQVNGQQVGCVTDGHHASSRKRRRKGAEGLGEEGGLHQDPLRHSCSPMGDGDPEAMEESPRKKKKKKRKQETQRAVEEDGHLKCPRSAKPQDAVVPESSSCAPSANGWCPGDRMGLSQAPPVSWNGERESDVVQELLKYSSDKAYGRKVLTWDGKMSAVSQDAIEDSRQARTETVVDDWDEEFDRGKEKKIKKFKREKRRNFNAFQKLQTRRNFWSVTHPAKAASLSYRR
B3: USP15, endogenous (FaDu) (enzyme, UniProt Q9Y4E8 1-981)
chain: MAEGGAADLDTQRSDIATLLKTSLRKGDTWYLVDSRWFKQWKKYVGFDSWDKYQMGDQNVYPGPIDNSGLLKDGDAQSLKEHLIDELDYILLPTEGWNKLVSWYTLMEGQEPIARKVVEQGMFVKHCKVEVYLTELKLCENGNMNNVVTRRFSKADTIDTIEKEIRKIFSIPDEKETRLWNKYMSNTFEPLNKPDSTIQDAGLYQGQVLVIEQKNEDGTWPRGPSTPKSPGASNFSTLPKISPSSLSNNYNNMNNRNVKNSNYCLPSYTAYKNYDYSEPGRNNEQPGLCGLSNLGNTCFMNSAIQCLSNTPPLTEYFLNDKYQEELNFDNPLGMRGEIAKSYAELIKQMWSGKFSYVTPRAFKTQVGRFAPQFSGYQQQDCQELLAFLLDGLHEDLNRIRKKPYIQLKDADGRPDKVVAEEAWENHLKRNDSIIVDIFHGLFKSTLVCPECAKISVTFDPFCYLTLPLPMKKERTLEVYLVRMDPLTKPMQYKVVVPKIGNILDLCTALSALSGIPADKMIVTDIYNHRFHRIFAMDENLSSIMERDDIYVFEININRTEDTEHVIIPVCLREKFRHSSYTHHTGSSLFGQPFLMAVPRNNTEDKLYNLLLLRMCRYVKISTETEETEGSLHCCKDQNINGNGPNGIHEEGSPSEMETDEPDDESSQDQELPSENENSQSEDSVGGDNDSENGLCTEDTCKGQLTGHKKRLFTFQFNNLGNTDINYIKDDTRHIRFDDRQLRLDERSFLALDWDPDLKKRYFDENAAEDFEKHESVEYKPPKKPFVKLKDCIELFTTKEKLGAEDPWYCPNCKEHQQATKKLDLWSLPPVLVVHLKRFSYSRYMRDKLDTLVDFPINDLDMSEFLINPNAGPCRYNLIAVSNHYGGMGGGHYTAFAKNKDDGKWYYFDDSSVSTASEDQIVSKAAYVLFYQRQDTFSGTGFFPLDRETKGASAATGIPLESDEDSNDNDNDIENENCMHTN

Amino acid sequences for entries named in this document (tags omitted). A change or cut given only in a name is not applied to a line headed by its entry.
UniProt P07711: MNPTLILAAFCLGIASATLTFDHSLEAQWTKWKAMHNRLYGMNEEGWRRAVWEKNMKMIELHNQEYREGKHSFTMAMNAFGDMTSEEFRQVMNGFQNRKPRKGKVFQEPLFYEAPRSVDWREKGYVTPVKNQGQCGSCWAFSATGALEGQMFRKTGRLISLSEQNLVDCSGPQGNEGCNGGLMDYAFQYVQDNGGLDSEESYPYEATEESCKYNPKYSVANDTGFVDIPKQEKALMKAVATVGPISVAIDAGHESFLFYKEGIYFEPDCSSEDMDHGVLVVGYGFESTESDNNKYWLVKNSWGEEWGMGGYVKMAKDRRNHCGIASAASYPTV
UniProt O00487: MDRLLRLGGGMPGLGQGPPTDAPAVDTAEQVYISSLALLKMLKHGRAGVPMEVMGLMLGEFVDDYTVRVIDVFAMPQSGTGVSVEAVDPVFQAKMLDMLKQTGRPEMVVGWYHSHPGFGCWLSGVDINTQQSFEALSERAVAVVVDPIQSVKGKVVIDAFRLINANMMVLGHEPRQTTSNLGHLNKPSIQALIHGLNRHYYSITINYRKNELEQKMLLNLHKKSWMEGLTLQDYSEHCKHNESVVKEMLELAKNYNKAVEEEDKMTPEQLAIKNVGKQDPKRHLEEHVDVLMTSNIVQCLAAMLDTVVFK

We go through five molecules from paper PMC12629859.

These are yes or no findings as the source states them, for the method shown. Binding seen in cells or lysates may run through a third protein. These calls come from enrichment with a bait or labelling near it, and not all partners need be listed.

For the test, the target named is Flag-tagged overexpressed CTSL (FaDu cells) (UniProt P07711). Put plainly: affinity purification with mass spectrometry; Flag-tagged CTSL overexpressed in FaDu cells; lysate in IP lysis buffer, IP overnight at 4°C, elution by boiling or FLAG peptide, LC-MS/MS.
Take “POH1, endogenous (FaDu) (from UniProt O00487 1-310) (enzyme)”: the binding entry is “binds”.

Regarding “Ubiquitin-specific protease 20 (USP20), endogenous (from UniProt Q9Y2K6 1-914) (enzyme)”, the binding result was “binds”.

Consider B1, for which the binding result was “binds”.

As for B2, the binding entry is listed as “binds”.

On to B3, for which the binding entry is reported as “binds”.
